The other results are listed elsewhere or left out. Shown are side measurements of this screen, not its main read-out; they come without a call. Most of these compounds were active or inconclusive in the main read-out, so they are no random draw. Words in brackets tell the shape of the fitted curve; partial curves, single points and poor fits give uncertain potencies.

The nature of the experiment: IkB Signaling. Conditions: ABC-DLBCL IkBa-CBG/CBR dual luciferase ratio (green luciferase fused to IkBa over red control in OCI-Ly3 lymphoma cells), 4 h; measured here: control luc red channel unless noted. The method in brief:
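Luminescence ratio of IκBα-fused green versus native red beetle luciferase in OCI-Ly3 cells, 4 h post-doxycycline with compound; red signal alone, scaled from basal (0%) to zero light (-100%), flagged nonspecific or cytotoxic effects.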
As for `O=C(NCc1cccc(F)c1)C1CCCN(C(=O)N2CCOc3ccccc32)C1` (configuration not stated), the AC50 is 12.6 µM [falling, partial curve].
The value for `Cc1ccc(C)c(NC(=O)C2CCCN(c3nc4ccccc4s3)C2)c1` (configuration not stated) was 15.8 µM [falling, partial curve].
For `CC1CN(C(=O)N2CCC(C(=O)NCc3cccs3)CC2)c2cc(Cl)ccc2O1` (configuration not stated) the value was 15.8 µM [falling, partial curve].
The value for `O=C(c1ccc(Br)o1)N1CCN(c2ccc3nnc(-c4ccccc4)n3n2)CC1` was 20 µM [falling, single point]; that for `COc1ccc(OC)c(CNC(=O)c2ccc(C)c(NC(=O)c3nsc4ccccc34)c2)c1` was 0.2 µM [falling, full curve].
Turning to `CCCCNC(=O)C1CCN(S(=O)(=O)CCC)CC1`, the AC50 was 0.00794 µM [falling, full curve].
`Cc1sc2nc(C(C)C)nc(SCC(=O)N3CCN(C(=O)c4ccco4)CC3)c2c1C`: the AC50 is 31.6 µM [falling, single point].
For `Cn1c(SCC(=O)c2ccccc2)nnc1-c1cnccn1`, the AC50 was 20 µM [falling, partial curve].
As to `CCc1nn2c(=O)cc(COC(=O)c3cccc(NC(=O)c4cccs4)c3)nc2s1`, the AC50 is 0.794 µM [falling, full curve].
Take `COCCNC(=O)Nc1cc(C(=O)NCc2ccc(C(C)C)cc2)ccc1N1CCCC1`: the AC50 was 39.8 µM [falling, single point].
Consider `COc1cc(C2NC(=O)c3c(sc4c3CCN(C)C4)N2)cc(Br)c1OC(=O)c1ccc(C)cc1` (configuration not stated), for which the AC50 was 25.1 µM [falling, single point].
The value for `CCOc1ccc(C2C(C(=O)OC)=C(C)NC3=C2C(=O)c2ccccc23)cc1OC` (configuration not stated) was 10 µM [falling, partial curve]; that for `O=C(NCC(c1ccc2c(c1)OCO2)N1CCN(c2ccc(F)cc2)CC1)c1cccc([N+](=O)[O-])c1` (configuration not stated) was 31.6 µM [falling, single point]; that for `Cc1ccc2onc(CNC(=O)Nc3ccccc3C#N)c2c1` was 12.6 µM [falling, single point].
Consider `O=C(c1noc2c1CCc1ccccc1-2)N1CCc2ccccc2C1`, for which the AC50 is 20 µM [falling, single point].
With `COc1ccc(Nc2ncnc3c2c(-c2ccccc2)cn3-c2ccc(C)c(Cl)c2)cc1OC`, the concentration at half-maximal activity (AC50) is 12.6 µM [falling, single point].
For `O=C(CSc1nnc(Cc2cccs2)n1Cc1ccco1)Nc1ccc(Cl)cc1Cl` the value was 15.8 µM [falling, partial curve]; for `Cc1nn(C)c2c1c(C(F)(F)F)cc(=O)n2C(C)C(=O)NCCc1ccc(Cl)cc1` (configuration not stated), 25.1 µM [falling, partial curve]; for `COc1ccc(NC(=O)c2ccccc2NC(=O)c2ccco2)c(OC)c1`, 7.94 µM [falling, partial curve].
The value for `COCCOC(=O)c1c(C)oc2c1cc(NS(=O)(=O)c1ccc(Cl)c(C)c1)c1ccccc12` was 12.6 µM [falling, partial curve].
For the molecule `N#Cc1ccc(C(=O)Nc2ccccc2-c2nc3ccccc3s2)c(F)c1`, the AC50 was 3.98 µM [rising, full curve].
The value for `COc1ccc(OCc2ccc(-c3nc(C#N)c(NCc4ccccc4)o3)o2)cc1` was 31.6 µM [falling, single point].
Take `COc1ccc(-c2nc(SCC(=O)Nc3ccc4c(c3)OCO4)c(-c3ccccc3)[nH]2)cc1`: the AC50 was 0.158 µM [falling, full curve].
For `O=C(CN1CCN(c2ncccn2)CC1)N1CCN(C(c2ccccc2)c2ccccc2)CC1`, the AC50 is 25.1 µM [falling, single point].
For the molecule `COc1ccccc1NC(=O)C1=C(C)Nc2nc(-c3ccco3)nn2C1c1ccccc1` (configuration not stated), the AC50 is 15.8 µM [falling, partial curve].
With `Cc1ccccc1NC(=O)c1c(NC(=O)c2ccncc2)sc2c1CCC(C(C)(C)C)C2` (configuration not stated), the AC50 was 12.6 µM [falling, partial curve].
Take `CNS(=O)(=O)c1cc(-c2nn3c(C)nnc3c3ccccc23)ccc1C`: the AC50 is 2.51 µM [falling, full curve].
`CCOC(=O)c1c(NC(=O)c2cc(-c3ccc(Cl)cc3)on2)sc2c1CCCC2`: the AC50 was 10 µM [falling, partial curve].
For `CCOc1ccc(-c2cc3nc(C4CCN(C(=O)OC(C)(C)C)CC4)c(C(=O)Nc4ccc(C)c(F)c4)cn3n2)cc1` the value was 31.6 µM [falling, single point]; for `Cc1ccc(C)n1-n1cnc2sc(-c3ccccc3)cc2c1=O`, 25.1 µM [falling, partial curve].
For the molecule `CCn1cc(C(=O)N2CCN(c3cc(Cl)ccc3C)CC2)c(=O)c2cc(S(=O)(=O)N3CCOCC3)ccc21`, the AC50 is 20 µM [falling, single point].
The value for `CC(=O)c1ccc(NS(=O)(=O)c2cnc(N)nc2)cc1` was 25.1 µM [rising, single point]; that for `Cc1cccc(NC(=O)CSC2=Nc3ccccc3C3=NC(CCC(=O)NCc4ccc(F)cc4)C(=O)N23)c1` (configuration not stated) was 20 µM [falling, single point]; that for `CCOc1ccc(CN2C(=O)c3ccccc3Sc3ccc(C(=O)NCCc4ccccc4)cc32)cc1` was 10 µM [rising, partial curve].
In the case of `CC1CCN(S(=O)(=O)c2ccc(C(=O)Nc3nc4ccc(F)cc4s3)cc2)CC1`, the AC50 is 0.631 µM [falling, full curve].
As to `O=C(CCSc1nc(-c2ccco2)cc(C(F)(F)F)n1)N1CCCc2ccccc21`, the AC50 was 12.6 µM [falling, partial curve].
The value for `CC(C(=O)Nc1ccccc1C(F)(F)F)n1nnc2sc3c(c2c1=O)CCCC3` (configuration not stated) was 25.1 µM [falling, partial curve, poor fit]; that for `O=C1CCCC2=C1C1(O)C(=O)c3ccccc3C1(O)O2` (configuration not stated) was 12.6 µM [falling, partial curve]; that for `CCc1ccc(CNC(=O)CSc2c3c(nc4ccc(Cl)cc24)CCCC3)cc1` was 2.51 µM [falling, full curve, poor fit].
For `Cc1ccc2c(c1)C(c1ccccc1)N(C(=O)c1ccc(S(=O)(=O)N3CCCCC3)cc1)CC(=O)N2` (configuration not stated) the value was 39.8 µM [falling, single point]; for `Cc1ccccc1NC(=O)C(=O)NCC1(c2ccccc2)CCCC1`, 15.8 µM [falling, single point]; for `O=C(Nc1nc(-c2ccc3c(c2)OCO3)cs1)C1COc2ccccc2O1` (configuration not stated), 10 µM [falling, partial curve].
The value for `CCOc1ccc(Nc2nc(C)c(NC(=O)c3ccc(C)cc3)c(Nc3ccc(OCC)cc3)n2)cc1` was 6.31 µM [falling, partial curve]; that for `O=C(CSc1nnc2scc(-c3ccc(Cl)cc3)n12)Nc1cccc(C(F)(F)F)c1` was 20 µM [falling, partial curve].
On to `CCOc1ccc(N2CCCn3c2nc2c3c(=O)n(CCc3ccccc3)c(=O)n2C)cc1`, for which the AC50 is 12.6 µM [falling, partial curve].
On to `CCn1c(=O)c2cc(C(=O)N3CCN(c4cccc(OC)c4)CC3)sc2c2ccccc21`, for which the AC50 is 7.94 µM [falling, full curve].
`COc1ccc(Cl)cc1Nc1nc2ccc(C(=O)c3ccccc3)cc2n2cnnc12`: the half-maximal activity concentration (AC50) was 0.0794 µM [falling, full curve, poor fit].
For `CCc1ccc(C(c2ccccc2)c2c[nH]c3ccc(C)cc23)s1` (configuration not stated) the value was 39.8 µM [falling, partial curve]; for `O=C(Nc1ccc(Br)cc1)C1CCCN1S(=O)(=O)c1cccs1` (configuration not stated), 6.31 µM [falling, partial curve]; for `CC(CCc1ccccc1)NC(=O)Cn1c(=O)nc(-c2ccccc2F)c2cc(Cl)ccc21` (configuration not stated), 25.1 µM [falling, partial curve].
The value for `CCOC(=O)Cn1nnnc1C(CC)N(Cc1cccs1)Cc1cc2cc(C)ccc2[nH]c1=O` (configuration not stated) was 12.6 µM [falling, partial curve]; that for `CC(C(=O)N(C1CC1)C1(C(=O)Nc2ccccc2)CCCC1)N1C(=O)c2ccccc2C1=O` (configuration not stated) was 12.6 µM [falling, partial curve]; that for `COc1cccc(-n2ccnc2SCC(=O)Nc2ccc(Cl)c(Cl)c2)c1` was 12.6 µM [rising, partial curve, poor fit].
For `CSc1ccc(CCNC(=O)c2ccc3c(c2)nc2n3CCCCC2)cc1` the value was 20 µM [falling, partial curve].
Take `O=C(CSc1nccn1-c1ccc(Cl)cc1)Nc1cccc2ccccc12`: the AC50 is 15.8 µM [falling, partial curve].
For `Cc1ccc(CSc2ncc(Cl)c(C(=O)Nc3nc4ccc(C)cc4s3)n2)cc1` the value was 1.58 µM [falling, full curve].
Regarding `Oc1c(C(c2ccccc2)N2CCN(c3cccc(Cl)c3)CC2)sc2nc(-c3ccco3)nn12` (configuration not stated), the AC50 is 3.98 µM [rising, partial curve, poor fit].
Regarding `O=c1c(=O)n(-c2ccccc2)ccn1Cc1cccc(C(F)(F)F)c1`, the AC50 is 1 µM [rising, full curve, poor fit].
For `COc1ccccc1N1CCN(C(=O)CCc2ccc(S(=O)(=O)NCC(C)C)cc2)CC1` the value was 12.6 µM [falling, partial curve].
Consider `O=C(NCc1ccc(F)cc1)c1ccc(CS(=O)Cc2ccc(Cl)cc2)o1` (configuration not stated), for which the AC50 was 15.8 µM [falling, single point].
Regarding `COc1ccccc1CNS(=O)(=O)c1cc(Br)cc2c1N(C(C)=O)C(C)C2` (configuration not stated), the AC50 is 25.1 µM [falling, partial curve].
The value for `COc1cc(Cl)c(NC(=O)c2cc(CN3CCCC3)on2)c(OC)c1` was 3.16 µM [rising, single point].

What is called AC50 is the concentration giving half of the maximal activity seen.

These data come from PubChem BioAssay AID445 (National Center for Advancing Translational Sciences (NCATS), 2006).
